The whole screen tested about 53,000 sequences, of which about 3,700 (7%) were called active.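 How the source made its calls: active means gene knockdowns whose robust z-score for IL-1 alpha signal is at least 2 or at most -2, so actives lie on both sides; inactive means the rest.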 The list shows a part of the results.
Test: Components of the Cytosolic LPS Sensing Pathway: Gene Identification via Genome-wide siRNA Screen;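 further: robust z of the log signal after scaling to non-targeting control siRNA wells of the plate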
Conditions: RAW264.7 macrophages, IL-1a HTRF, actives lie on both sides, screened at 100 nM (by protocol), cells primed 5 h with Pam3CSK4 first
Method in brief: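 Read-out: IL-1a HTRF on supernatant, divided by plate negative-control median ×100, log-transformed and converted to robust z-score. Cells were RAW264.7 given 100 nM siRNA, Pam3CSK4-primed 5 hours, then LipidA-transfected 24 hour.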

Row | Sequence | z-score
1 | CCAUGGUUACCGUGUACUATT against Olfr1513 | inactive: -0.312
2 | GGCUAAAUCAAAGUUAUGATT against Speer4f1 | inactive: -1.37
3 | GGAGCCUUCACGGGUAUCATT against Slc6a9 | inactive: -0.878
4 | GGAUAAAACAGGACUUCUUTT against Dcaf11 | inactive: 0.778
5 | GCUUUGGUCGCUCUCGUGATT against Tctex1d1 | inactive: 0.229
6 | GGCACAACUCCCUUGUGAUTT against Tlr8 | inactive: -0.574
7 | GGAAGAAAGACUAGACUCGTT against Zfp444 | inactive: 0.338
8 | GCCAAAUGGGAAAUGGAAGTT against Utp6 | inactive: 0.34
9 | GCGACUCACUGGGAACCUUTT against Col9a3 | inactive: 0.207
10 | CCCAAACCAAUUUGUGCCUTT against Add2 | inactive: -1.53
11 | GGAUAAUGUGGUCAUAGUATT against Ap3m1 | inactive: 0.655
12 | GGAUAGCUCAUGAUGCUGUTT against Usp13 | inactive: -0.885
13 | GGAGGAUCCUGCUAUUCCATT against 4930583K01Rik | active: -2.24
14 | CCCUCCAAAAGAAGACUAUTT against Sh3pxd2a | inactive: 0.753
15 | CGCUAUUUACCAGAGUGGGTT against Elp2 | inactive: -0.0107
16 | GGAAGGUGAUAUCUUAUGUTT against Elmo3 | inactive: -0.249
17 | CCUCGUGGUGAAAAUCAACTT against Lpin3 | inactive: 0.435
18 | GGACUUUCUGAUAAAGAACTT against Mmaa | inactive: -0.135
19 | GCAAGAGACCAUGAGAAAUTT against Ccdc18 | inactive: -0.149
20 | GGAUGUGAACAUCGAGGACTT against Il1f10 | inactive: 1.2
21 | GCAAGCUAUUCCACCAUUGTT against Spns3 | inactive: -0.975
22 | CCCACUACUGUAAGACAUGTT against Trim46 | inactive: 0.614

Row | Sequence | z-score
23 | GGCCGUCAGCUUUACACAGTT against Gramd1c | inactive: -0.296
24 | GGUGCUCAUGGAGAAGUUATT against Far2 | inactive: 0.749
25 | GGAAGAUGUGACCAAUUCUTT against Prokr1 | inactive: 0.635
26 | CCAAGCAAGUGGUUAACUUTT against Psat1 | inactive: 0.847
27 | GCCCAUUAUGAAACUGAAGTT against Nfatc3 | inactive: 1.45
28 | CGCGCUGGUACAAUCUCCUTT against Wwc1 | inactive: 0.828
29 | GGGCAGUGUACUGUUUAACTT against Rhpn1 | inactive: 0.709
30 | CCAGUACAAAGCCACAAUATT against Rab7 | active: 5.54
31 | GGCUUUGGAUUUGUCAAGUTT against Dazap1 | inactive: -0.804
32 | GGAUGUGAAAUUCAAGCUUTT against Dhx34 | inactive: -0.457
33 | GGAUGAAGAAACAAGAAAGTT against Tmc1 | active: -2.46
34 | CCUCUUAUACCUUUAACUCTT against Clpb | inactive: -0.747
35 | GUUUUAGUGUGGCUGCAUUTT against Gsta2 | inactive: 0.135
36 | GGCAAUGUUACCAUUCACUTT against Il6ra | inactive: -1.06
37 | GCCUAGAGACAUUUCUACCTT against Bcl2l10 | inactive: 1.31
38 | GCGACUACUUAGACACUUUTT against Snx30 | inactive: 0.724
39 | CGUGGGCUCUGUUGACAUUTT against Olfr492 | inactive: 0.869
40 | GGAGAUUUUCAAGAGACUCTT against 0610010F05Rik | inactive: 1.94
41 | CCGGUUACAAACUCAACUGTT against Syne3 | inactive: -0.285
42 | CGCACAUUCUUCAUAACACTT against Kdm8 | inactive: -1.57
43 | CCCUAUAGACCAGUGCAAUTT against Cnih1 | inactive: 0.478
44 | GGGCUAGCUAGCAAAAGCATT against Prr13 | inactive: -1.83

Exported as a markdown table: entries from further up

| Row | Sequence | z-score |
| --- | --- | --- |
| 9 | GCGACUCACUGGGAACCUUTT against Col9a3 | inactive: 0.207 |
| 10 | CCCAAACCAAUUUGUGCCUTT against Add2 | inactive: -1.53 |
| 11 | GGAUAAUGUGGUCAUAGUATT against Ap3m1 | inactive: 0.655 |
| 12 | GGAUAGCUCAUGAUGCUGUTT against Usp13 | inactive: -0.885 |
| 13 | GGAGGAUCCUGCUAUUCCATT against 4930583K01Rik | active: -2.24 |
| 14 | CCCUCCAAAAGAAGACUAUTT against Sh3pxd2a | inactive: 0.753 |
| 15 | CGCUAUUUACCAGAGUGGGTT against Elp2 | inactive: -0.0107 |
| 16 | GGAAGGUGAUAUCUUAUGUTT against Elmo3 | inactive: -0.249 |
| 17 | CCUCGUGGUGAAAAUCAACTT against Lpin3 | inactive: 0.435 |
| 18 | GGACUUUCUGAUAAAGAACTT against Mmaa | inactive: -0.135 |
| 19 | GCAAGAGACCAUGAGAAAUTT against Ccdc18 | inactive: -0.149 |
| 20 | GGAUGUGAACAUCGAGGACTT against Il1f10 | inactive: 1.2 |
| 21 | GCAAGCUAUUCCACCAUUGTT against Spns3 | inactive: -0.975 |
| 22 | CCCACUACUGUAAGACAUGTT against Trim46 | inactive: 0.614 |
| 23 | GGCCGUCAGCUUUACACAGTT against Gramd1c | inactive: -0.296 |
| 24 | GGUGCUCAUGGAGAAGUUATT against Far2 | inactive: 0.749 |
| 25 | GGAAGAUGUGACCAAUUCUTT against Prokr1 | inactive: 0.635 |
| 26 | CCAAGCAAGUGGUUAACUUTT against Psat1 | inactive: 0.847 |
| 27 | GCCCAUUAUGAAACUGAAGTT against Nfatc3 | inactive: 1.45 |
| 28 | CGCGCUGGUACAAUCUCCUTT against Wwc1 | inactive: 0.828 |
| 29 | GGGCAGUGUACUGUUUAACTT against Rhpn1 | inactive: 0.709 |
| 30 | CCAGUACAAAGCCACAAUATT against Rab7 | active: 5.54 |
| 31 | GGCUUUGGAUUUGUCAAGUTT against Dazap1 | inactive: -0.804 |
| 32 | GGAUGUGAAAUUCAAGCUUTT against Dhx34 | inactive: -0.457 |
| 33 | GGAUGAAGAAACAAGAAAGTT against Tmc1 | active: -2.46 |
| 34 | CCUCUUAUACCUUUAACUCTT against Clpb | inactive: -0.747 |
| 35 | GUUUUAGUGUGGCUGCAUUTT against Gsta2 | inactive: 0.135 |

The list continues.

Row | Sequence | z-score
45 | AAUGCUAAUUACCAUGACATT against Adgrl3 | inactive: 0.264
46 | GGUGGUGGAUGAUGAAGACTT against Myo7a | inactive: -0.0254
47 | GGAUAAGCCUUAAGGAAAATT against Stard5 | inactive: 1.19
48 | CGAGACUCUAUCUUUGUCCTT against St3gal3 | inactive: -0.785
49 | GGUCUGGGACUGAAGCACUTT against Sec14l3 | inactive: -0.341
50 | GGAGAGACUUGAGAUUGUCTT against Ptx3 | inactive: 0.245
51 | GCCAUAUUCAAAUAACUGATT against Tor3a | inactive: -0.709
52 | GGAAGAAAAACAGCAGAUCTT against Dync1i1 | inactive: -1.04
53 | GGACCUCUUCCUGAUGGAUTT against Yap1 | inactive: 1.87
54 | GGUCUUCCAAGAAAAAGGCTT against a | inactive: 1.07
55 | GCUCUUUACCCAUCACUAATT against 8030451A03Rik | inactive: -1.39
56 | GGGACAGUCUUCAGUGACATT against Czib | inactive: 1.1
57 | GGCUUACACAAAAAUCUGUTT against Camk2d | inactive: -0.36
58 | GGGCCAGCAAGGAAAGAAUTT against Pitx2 | inactive: -1.37
59 | GGUGGUAUCUGUAUUCUAUTT against Olfr1106 | active: 2.6
60 | GCAGAAAGCAACACGCCCUTT against Pramel20 | inactive: 0.631
61 | GGAAAAGCAUCUUCUCUUUTT against Rnf141 | inactive: 0.0772
62 | GACAUUUCGACCUUCCAGUTT against Coq2 | inactive: 1.63
63 | GGUUCAAAUAUCACAUUGATT against B230206H07Rik | inactive: 1.39
64 | GGUCGUGAUAUUAUUGGGUTT against Ddx47 | active: 2.91
65 | GCUGGAUGGCCGUUUCAAATT against Fancd2os | inactive: -0.00925
66 | GGAAGCAGAGAAAAUGUUCTT against Snrpa1 | inactive: -1.9

Row | Sequence | z-score
67 | GCUUUAUCAUGAGCUCCACTT against Zfp629 | inactive: 0.757
68 | GCCAAAAUCAAGAUUUGCUTT against Angptl3 | inactive: -0.296
69 | GGUAAACGAUCCAGAUGCATT against Tmem220 | inactive: 0.0291
70 | CCAAGUGAUCUACAGUGAUTT against Mrc2 | inactive: 0.00997
71 | UGGCCACGACCCUGAACUUTT against Ghrhr | inactive: 0.56
72 | GGCCAAAAUGGUGUUGUUCTT against Oas1c | inactive: 1.1
73 | GGCUUACAUACAUACUAUGTT against Ddx3y | inactive: 0.886
74 | GCCAUGUGCUGGAAAACUCTT against Cfp | inactive: -0.14
75 | GGAGAACUUCAACAAUGUCTT against Tesc | inactive: 0.46
76 | GCUGUCUAUUUCCUAUACUTT against Bcl7a | inactive: 0.171
77 | GGCGUGUAUCUAUACACACTT against Glp1r | active: 3.1
78 | GGUUUUACUCCUUUAAUGUTT against Cbfa2t3 | inactive: 0.193
79 | GGACUUAUGGUUUUUCCCATT against Atp1b3 | inactive: -1.38
80 | GGAAGAUAAACCUAUCAUCTT against Phlda3 | inactive: 0.477
81 | GGCAAUGUGUCUUUGAUCATT against Lamc2 | inactive: -0.757
82 | GGACCAUCACUUCCAGCUATT against Rab1b | inactive: -0.726
83 | GGCAUUUAAAACUCAUUGUTT against G6pdx | inactive: -1.47
84 | CGCAAUUCAGGUACCAAAUTT against Ndufv1 | inactive: -0.0623
85 | GGUUCAGUUUGGAAAUGAATT against Rbm26 | inactive: 0.809
86 | GCAGUGCAUAACAUUGCCATT against Marcks | inactive: -1.38
87 | GGAGAACAACCUUCUCAUATT against Cog7 | inactive: -0.398
88 | GGACAAAUGAACAUGCUGATT against Edn2 | active: -2.26

Row | Sequence | z-score
89 | CCUGUAUAGAGGUGGGAAGTT against Tk2 | inactive: 1.74
90 | GGAAGCGUAUUUUGGUGAUTT against Cox10 | inactive: 0.642
91 | GGAAUUUAGAAGGAUUAGGTT against Ptp4a1 | inactive: 1.13
92 | GGAGUUUGAUGCAAAUUUUTT against Prl3a1 | inactive: 0.798
93 | GCGAUACCGUGCCAUGUUUTT against Dohh | inactive: -1.21
94 | GGAGCAGAUUCUUCAAUAUTT against Atp11a | inactive: 0.294
95 | GGUAUGUCUAAGAAAACCATT against Pi4ka | inactive: 0.173
96 | GGAGGUCCCUUCUUCAGCUTT against Zfp410 | inactive: -1.19
97 | GGAACCCAUCAGCUACAUGTT against Spaca4 | inactive: -0.723
98 | GCCAAGGGUUUGAAAGCCATT against Tpm1 | inactive: -0.949
99 | GGUGUUGAACAAGUGCGACTT against Tescl | inactive: -0.987
100 | GCAUCUCGUGUGACUUAAGTT against Ak1 | inactive: -0.642
101 | GGAUACUCUCGAACUCGAUTT against Cstdc2 | inactive: -0.197
102 | GGAUGACUGUCUUCCAUCGTT against Hrg | inactive: -1.11
103 | GGCACCUUCAAAUUACAUCTT against Asl | inactive: -0.376
104 | GGGUGGACUGAAUGCUGAUTT against Qtrt1 | inactive: 0.665
105 | CCCAGUAACUAGUUUGUAATT against Tbc1d2 | inactive: -0.629
106 | GGGAUUCGGGUUCGUAACUTT against Rbfox2 | inactive: -0.983
107 | CGUUCUUGAGAGUCGAUCATT against Smoc2 | inactive: -0.19

— PubChem BioAssay AID1508600 (Functional Genomics Laboratory (NCATS/FGL), 2020)
